## Percent effect of library compounds

Chains of the proteins cited; added tags and fusions are not shown. Residues count along the entry.
UniProt Q8IDJ8, 1-583: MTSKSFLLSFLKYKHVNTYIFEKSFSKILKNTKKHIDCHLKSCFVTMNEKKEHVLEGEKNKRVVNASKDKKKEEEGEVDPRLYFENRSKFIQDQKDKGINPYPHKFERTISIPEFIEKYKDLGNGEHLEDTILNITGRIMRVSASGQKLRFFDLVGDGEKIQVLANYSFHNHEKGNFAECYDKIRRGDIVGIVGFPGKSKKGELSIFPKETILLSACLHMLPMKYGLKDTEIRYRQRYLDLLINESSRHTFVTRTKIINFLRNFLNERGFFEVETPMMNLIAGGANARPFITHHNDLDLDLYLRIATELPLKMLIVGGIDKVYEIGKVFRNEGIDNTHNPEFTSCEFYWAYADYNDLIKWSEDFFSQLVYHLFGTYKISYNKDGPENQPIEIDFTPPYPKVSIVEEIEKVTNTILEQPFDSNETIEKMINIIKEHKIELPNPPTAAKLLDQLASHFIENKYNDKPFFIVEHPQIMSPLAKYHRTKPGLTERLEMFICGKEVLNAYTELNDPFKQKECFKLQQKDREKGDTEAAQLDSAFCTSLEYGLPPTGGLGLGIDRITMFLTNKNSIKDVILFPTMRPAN
UniProt P9WNZ1, whole entry: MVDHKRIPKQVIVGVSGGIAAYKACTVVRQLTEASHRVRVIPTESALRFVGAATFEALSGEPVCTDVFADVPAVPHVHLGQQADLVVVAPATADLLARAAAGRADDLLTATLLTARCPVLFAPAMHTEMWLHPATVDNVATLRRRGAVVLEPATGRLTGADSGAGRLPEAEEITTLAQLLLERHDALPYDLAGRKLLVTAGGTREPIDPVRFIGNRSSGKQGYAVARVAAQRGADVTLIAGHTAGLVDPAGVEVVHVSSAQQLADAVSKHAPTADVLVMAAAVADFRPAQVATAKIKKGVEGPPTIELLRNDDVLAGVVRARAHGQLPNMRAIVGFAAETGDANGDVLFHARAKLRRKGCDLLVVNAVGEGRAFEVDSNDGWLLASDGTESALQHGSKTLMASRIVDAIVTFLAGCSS

Results are given as percent effect.
How 0% and 100% were set is not recorded. Most values in the screen are low, and negative values occur.
This is an unselected part of the compounds tested.
Two or more numbers in one place are separate tests of the same structure; such repeats can differ widely.

PfKRS1: 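Enzyme assay of the cytosolic lysyl-tRNA synthetase in 384-well plates, read by luminescence. Target: Lysine-tRNA ligase, Plasmodium falciparum 3D7 (UniProt Q8IDJ8). Concentration: 30 µM. Direction is inferred from only a few compounds that gave an IC50; most scored high, so higher reads as stronger inhibition. Of about 69,000 compounds tested this way, about 49 (0.071%) reached 50% or more in at least one test.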
Toxoplasma: 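Assay of Toxoplasma gondii numbers, read through their beta-galactosidase reporter with a colour substrate. Concentration: 10 µM. The record gives no direction; the compounds picked for IC50 retests had high values, so higher reads as fewer parasites. About 67,000 compounds were tested under these conditions; 0.38% (about 260) showed 50% or more at least once.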
CoaBC: 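Coenzyme A biosynthesis protein CoaBC, Mycobacterium tuberculosis (UniProt P9WNZ1). Enzyme assay of CoaBC with a phosphate dye (Biomol Green) read at 650 nm. Tested at 30 µM. Higher reads as stronger inhibition, judged from the few compounds that gave an IC50. Most strong results did not repeat in a second test. About 67,000 compounds were tested under these conditions; 0.06% (about 40) showed 50% or more at least once.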

structure: Cc1ccc(CN2CCOCC3(C2)CN(c2ccc(C)s2)C(=O)CO3)o1 (stereo not given)
PfKRS1: -0.1413
CoaBC: -2.316

structure: CNC(=O)C(C)CNC(=O)c1coc(COc2cccc(F)c2F)n1 (stereo not given)
PfKRS1: 12.42
Toxoplasma: -3.241
CoaBC: 2.813

structure: O=C(CS(=O)(=O)Cc1ccccc1)NCc1ccccc1F
PfKRS1: -5.781
Toxoplasma: 11.46
CoaBC: 5.366

structure: COc1c(-c2ccc(O)cc2)oc2cc(O)cc(O)c2c1=O
PfKRS1: 5.369
Toxoplasma: 5.277
CoaBC: 12.7 & 33.63

structure: CCS(=O)(=O)NC1CCCN(c2ccc(F)cc2C)C1=O (stereo not given)
PfKRS1: -1.272
Toxoplasma: -63.78
CoaBC: 3.972

structure: [H][C@]12CN(Cc3ccccc3Cl)C[C@]1([H])N(CCOC)C(=O)CO2
Toxoplasma: 7.527

structure: CCCS(=O)(=O)N1CCc2onc(CNc3ncccn3)c2C1
PfKRS1: 1.573
Toxoplasma: 2.833
CoaBC: -2.773

structure: Cc1cc(NC(=O)C(C)N2CCN(c3ccccc3F)CC2)no1 (stereo not given)
PfKRS1: -0.708
Toxoplasma: 22.11
CoaBC: 3.435

structure: Cc1ccccc1-c1noc(CN2CCC(N3CCNC3=O)CC2)n1
PfKRS1: 0.5187
Toxoplasma: 3.919
CoaBC: 5.032

structure: Cc1nc(N2CCN(C(=O)c3ccccc3)CC2)cc(-n2ccnc2)n1
PfKRS1: -2.671
Toxoplasma: 13.01
CoaBC: 3.64

structure: Cc1cccc(CN(Cc2ccccc2)Cc2nccs2)n1
PfKRS1: 1.503
Toxoplasma: -3.79
CoaBC: 1.485

structure: COc1ccc2cc(CN(C)C(C)c3nc(C4CC4)no3)ccc2c1 (stereo not given)
PfKRS1: -2.708
Toxoplasma: 16.94
CoaBC: 4.577

structure: CCC(CNC(=O)c1ccc(C(N)=O)cc1)Oc1cccc(F)c1 (stereo not given)
PfKRS1: -0.5111
Toxoplasma: 2.397
CoaBC: 0.3659

structure: Cc1cnc(N2CCc3c(CN(C)Cc4ccco4)cncc3C2)nc1
PfKRS1: 1.604
Toxoplasma: 1.766
CoaBC: -13.93

structure: Cc1ccc(NC(=O)[C@H]2C[C@H](C(=O)O)CN(CC3CC3)C2)cn1
PfKRS1: 2.981
Toxoplasma: -19.84
CoaBC: 4.691

structure: CSCCC(O)C(=O)N(C)Cc1cnn(-c2ccc(F)cc2)c1 (stereo not given)
PfKRS1: 1.628
Toxoplasma: -3.084
CoaBC: 12.97

structure: Cc1cc(F)ccc1NS(=O)(=O)c1cc2c(c(C(=O)O)c1)OCCO2
PfKRS1: -0.1013
Toxoplasma: -6.941
CoaBC: 2.682

structure: COc1ccc(SCC2CNc3nc4ccccc4c(=O)n32)cc1 (stereo not given)
PfKRS1: 1.231
Toxoplasma: 17.77
CoaBC: 7.595

structure: Cc1cc(NC(=O)N2CCCC(CO)C2)nn1-c1ccccc1Cl (stereo not given)
PfKRS1: -0.187
Toxoplasma: 2.403
CoaBC: -4.019

structure: CCc1oc(C(=O)NC(C)c2ncn[nH]2)cc1CN1CCCC1 (stereo not given)
PfKRS1: -1.231
Toxoplasma: -7.987
CoaBC: 9.159

structure: Cn1nccc1C(=O)N1CCCN(CCCc2ccccc2)CC1
PfKRS1: 0.9219
Toxoplasma: -25.52
CoaBC: 0.8485

structure: [H][C@@]12CN(Cc3cccc(OC)c3)CC[C@]1([H])N(C(C)=O)C[C@H]2c1ccsc1
Toxoplasma: -2.177

structure: Cc1cc(NC(=O)CNc2ccc(Br)cc2F)on1
PfKRS1: 4.278
Toxoplasma: -0.8738
CoaBC: 0.1218

structure: CCc1nn(C)c(Cl)c1CN1CCCC(c2cc(O)nc(C)n2)C1 (stereo not given)
PfKRS1: 7.744
Toxoplasma: -5.492
CoaBC: 6.796

structure: CN(C)C(=O)c1cnn2c1OCCC2
PfKRS1: 1.803
Toxoplasma: 7.851
CoaBC: 0.1203

structure: c1cc(-c2cnccn2)cc(-c2ccn(CCN3CCCCC3)n2)c1
PfKRS1: 2.792
Toxoplasma: -6.783
CoaBC: -7.725

structure: O=C(Cc1cc(-c2ccc3c(c2)OCCO3)on1)NCc1ccccn1
PfKRS1: 8.016
Toxoplasma: -8.592
CoaBC: -0.4202

structure: Cc1cccc(NC(=O)C(C)Oc2ccc3c(c2)OCO3)n1 (stereo not given)
PfKRS1: 4.496
Toxoplasma: 6.842
CoaBC: 3.33

Measurements from “University of Dundee, Small-Polar-MMV Screening Library” (2021), ChEMBL document CHEMBL3988442.